{
  "source": "PubChem BioAssay AID314",
  "about": "(DTP/NCI, 2004)",
  "test_system": "DBA/2 mice, P1534 leukemia ip, survival T/C",
  "experiment": "NCI In Vivo Anticancer Drug Screen. Data for tumor model P1534 Leukemia (intraperitoneal) in DBA/2 mice",
  "details": "T/C endpoint: mean survival time, schedule: Q01DX010 (ip), vehicle: saline, higher T/C = longer survival",
  "protocol": "The antitumor activity of compounds was measured in mice bearing transplantable tumors. Survival or tumor size were measured and the results are expressed as the measurement made in the treated group (T) divided by the measurement made in the vehicle treated control group (C). The tumor model used in this assay is P1534 Leukemia (intraperitoneal) in DBA/2 mice",
  "note": "The list does not hold the whole screen: it gathers some chemical classes. Not every dose and run of a compound is shown. T/C: endpoint of the treated group in % of that of the vehicle group. Some doses have a count of surviving animals in place of a T/C: the source holds a T/C of zero for them, seemingly a mark for toxic or unscored doses. Some doses without a T/C left all or most animals alive at the check, yet need not have been tolerated: the source hardly ever lists a survival T/C far under the control, and the zero likely stands for such cases as well. Counts of survivors are from the toxicity check (mostly the fifth day) where no day follows; animals may have died later. Schedules are NCI's codes, taken here to give the interval after Q, in days (D) or hours (H), and the number of doses after X. Where survival is the endpoint, the PubChem record calls one and a half times the control and up active, and a quarter to a half above the control has no call in these data; cut-offs in other NCI protocols can differ.",
  "data": [
    {"smiles": "Cc1[nH]c(=O)[nH]c(=O)c1N(CCCl)CCCl", "values": [
      {"measurement": "T/C", "setting": "dose: 0.5 mg/kg/injection", "value": "108 % of control"},
      {"measurement": "T/C", "setting": "dose: 1.0 mg/kg/injection", "value": "100 % of control"},
      {"measurement": "T/C", "setting": "dose: 2.0 mg/kg/injection", "value": "108 % of control"},
      {"measurement": "survivor count", "setting": "dose: 4.0 mg/kg/injection", "value": "5 of 6"}
    ]}
  ]
}
